Test results from publication PMC12024529.
No constants are given. Whether binding was seen depends on the method and setting. Binding seen in cells or lysates may run through a third protein. Some binding calls cover weakened binding; strength is not graded here.

Protein sequences, listed by entry. Tags and fused reporters are not part of them. Lines headed by an entry give the natural chain unless they say otherwise; changes in a name come on top. Chains listed by the source or under a name are the forms on record and can include a tag or linker. Residues count along the entry.
wild-type full-length coagulation factor VIII (P00451, residues 20-2351): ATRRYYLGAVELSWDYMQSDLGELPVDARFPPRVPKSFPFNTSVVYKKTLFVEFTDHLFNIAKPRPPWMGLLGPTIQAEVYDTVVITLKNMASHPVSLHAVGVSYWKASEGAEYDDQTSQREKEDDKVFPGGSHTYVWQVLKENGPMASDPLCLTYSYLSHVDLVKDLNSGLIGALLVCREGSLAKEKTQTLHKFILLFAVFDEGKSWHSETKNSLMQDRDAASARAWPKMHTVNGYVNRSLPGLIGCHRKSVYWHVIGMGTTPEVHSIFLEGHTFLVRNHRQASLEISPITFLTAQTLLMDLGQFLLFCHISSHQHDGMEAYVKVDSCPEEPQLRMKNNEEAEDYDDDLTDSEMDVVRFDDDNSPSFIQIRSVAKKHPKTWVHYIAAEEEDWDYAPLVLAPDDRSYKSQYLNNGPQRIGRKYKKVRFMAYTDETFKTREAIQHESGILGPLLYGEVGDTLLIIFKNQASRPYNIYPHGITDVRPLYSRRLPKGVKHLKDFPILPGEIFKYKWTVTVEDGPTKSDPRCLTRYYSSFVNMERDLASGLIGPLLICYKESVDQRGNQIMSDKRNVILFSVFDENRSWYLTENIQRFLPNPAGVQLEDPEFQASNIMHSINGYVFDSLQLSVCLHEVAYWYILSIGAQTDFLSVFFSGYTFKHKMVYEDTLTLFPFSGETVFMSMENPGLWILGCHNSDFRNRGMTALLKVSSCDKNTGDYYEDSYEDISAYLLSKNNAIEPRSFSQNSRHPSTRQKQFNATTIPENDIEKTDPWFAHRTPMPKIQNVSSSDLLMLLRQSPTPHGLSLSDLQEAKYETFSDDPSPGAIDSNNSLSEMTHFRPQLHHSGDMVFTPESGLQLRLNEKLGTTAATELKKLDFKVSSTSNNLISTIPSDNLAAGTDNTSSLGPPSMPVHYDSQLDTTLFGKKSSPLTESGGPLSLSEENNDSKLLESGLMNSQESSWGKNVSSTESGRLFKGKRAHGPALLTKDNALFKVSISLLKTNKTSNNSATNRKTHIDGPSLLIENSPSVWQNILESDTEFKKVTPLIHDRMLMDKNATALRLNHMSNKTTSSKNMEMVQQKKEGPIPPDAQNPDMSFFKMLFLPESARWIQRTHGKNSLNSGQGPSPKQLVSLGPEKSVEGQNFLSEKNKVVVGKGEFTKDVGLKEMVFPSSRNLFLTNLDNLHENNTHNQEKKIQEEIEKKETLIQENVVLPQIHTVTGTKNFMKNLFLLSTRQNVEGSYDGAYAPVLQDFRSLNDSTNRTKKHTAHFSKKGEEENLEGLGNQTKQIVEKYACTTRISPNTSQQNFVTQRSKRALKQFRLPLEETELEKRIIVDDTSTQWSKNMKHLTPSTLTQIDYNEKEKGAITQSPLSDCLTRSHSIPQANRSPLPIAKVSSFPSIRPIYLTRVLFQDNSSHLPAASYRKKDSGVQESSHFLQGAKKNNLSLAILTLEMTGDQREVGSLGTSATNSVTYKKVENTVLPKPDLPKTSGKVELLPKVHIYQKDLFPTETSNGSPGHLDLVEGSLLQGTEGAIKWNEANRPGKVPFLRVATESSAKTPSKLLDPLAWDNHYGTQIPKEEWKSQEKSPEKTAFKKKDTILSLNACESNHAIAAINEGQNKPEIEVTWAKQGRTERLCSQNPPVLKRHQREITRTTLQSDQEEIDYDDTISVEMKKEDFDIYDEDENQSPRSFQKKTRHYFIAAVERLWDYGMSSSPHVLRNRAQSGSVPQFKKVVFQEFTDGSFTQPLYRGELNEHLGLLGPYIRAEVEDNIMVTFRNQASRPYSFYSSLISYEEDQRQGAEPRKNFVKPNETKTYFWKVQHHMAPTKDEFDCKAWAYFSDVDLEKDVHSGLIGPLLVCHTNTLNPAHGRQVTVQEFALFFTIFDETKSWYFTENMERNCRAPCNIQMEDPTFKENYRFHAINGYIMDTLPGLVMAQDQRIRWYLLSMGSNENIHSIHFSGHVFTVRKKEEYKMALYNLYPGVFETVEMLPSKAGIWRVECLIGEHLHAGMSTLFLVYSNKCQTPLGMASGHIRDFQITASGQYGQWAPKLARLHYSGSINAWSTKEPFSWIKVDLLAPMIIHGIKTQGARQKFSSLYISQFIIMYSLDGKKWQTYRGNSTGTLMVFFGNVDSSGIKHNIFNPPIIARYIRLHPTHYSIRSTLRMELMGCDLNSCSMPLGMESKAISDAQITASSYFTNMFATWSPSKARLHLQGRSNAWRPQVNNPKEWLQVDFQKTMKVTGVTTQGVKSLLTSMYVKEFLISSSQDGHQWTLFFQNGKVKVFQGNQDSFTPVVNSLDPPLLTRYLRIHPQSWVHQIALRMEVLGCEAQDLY
full-length factor VIII missense mutant p.N601D (P00451, form named): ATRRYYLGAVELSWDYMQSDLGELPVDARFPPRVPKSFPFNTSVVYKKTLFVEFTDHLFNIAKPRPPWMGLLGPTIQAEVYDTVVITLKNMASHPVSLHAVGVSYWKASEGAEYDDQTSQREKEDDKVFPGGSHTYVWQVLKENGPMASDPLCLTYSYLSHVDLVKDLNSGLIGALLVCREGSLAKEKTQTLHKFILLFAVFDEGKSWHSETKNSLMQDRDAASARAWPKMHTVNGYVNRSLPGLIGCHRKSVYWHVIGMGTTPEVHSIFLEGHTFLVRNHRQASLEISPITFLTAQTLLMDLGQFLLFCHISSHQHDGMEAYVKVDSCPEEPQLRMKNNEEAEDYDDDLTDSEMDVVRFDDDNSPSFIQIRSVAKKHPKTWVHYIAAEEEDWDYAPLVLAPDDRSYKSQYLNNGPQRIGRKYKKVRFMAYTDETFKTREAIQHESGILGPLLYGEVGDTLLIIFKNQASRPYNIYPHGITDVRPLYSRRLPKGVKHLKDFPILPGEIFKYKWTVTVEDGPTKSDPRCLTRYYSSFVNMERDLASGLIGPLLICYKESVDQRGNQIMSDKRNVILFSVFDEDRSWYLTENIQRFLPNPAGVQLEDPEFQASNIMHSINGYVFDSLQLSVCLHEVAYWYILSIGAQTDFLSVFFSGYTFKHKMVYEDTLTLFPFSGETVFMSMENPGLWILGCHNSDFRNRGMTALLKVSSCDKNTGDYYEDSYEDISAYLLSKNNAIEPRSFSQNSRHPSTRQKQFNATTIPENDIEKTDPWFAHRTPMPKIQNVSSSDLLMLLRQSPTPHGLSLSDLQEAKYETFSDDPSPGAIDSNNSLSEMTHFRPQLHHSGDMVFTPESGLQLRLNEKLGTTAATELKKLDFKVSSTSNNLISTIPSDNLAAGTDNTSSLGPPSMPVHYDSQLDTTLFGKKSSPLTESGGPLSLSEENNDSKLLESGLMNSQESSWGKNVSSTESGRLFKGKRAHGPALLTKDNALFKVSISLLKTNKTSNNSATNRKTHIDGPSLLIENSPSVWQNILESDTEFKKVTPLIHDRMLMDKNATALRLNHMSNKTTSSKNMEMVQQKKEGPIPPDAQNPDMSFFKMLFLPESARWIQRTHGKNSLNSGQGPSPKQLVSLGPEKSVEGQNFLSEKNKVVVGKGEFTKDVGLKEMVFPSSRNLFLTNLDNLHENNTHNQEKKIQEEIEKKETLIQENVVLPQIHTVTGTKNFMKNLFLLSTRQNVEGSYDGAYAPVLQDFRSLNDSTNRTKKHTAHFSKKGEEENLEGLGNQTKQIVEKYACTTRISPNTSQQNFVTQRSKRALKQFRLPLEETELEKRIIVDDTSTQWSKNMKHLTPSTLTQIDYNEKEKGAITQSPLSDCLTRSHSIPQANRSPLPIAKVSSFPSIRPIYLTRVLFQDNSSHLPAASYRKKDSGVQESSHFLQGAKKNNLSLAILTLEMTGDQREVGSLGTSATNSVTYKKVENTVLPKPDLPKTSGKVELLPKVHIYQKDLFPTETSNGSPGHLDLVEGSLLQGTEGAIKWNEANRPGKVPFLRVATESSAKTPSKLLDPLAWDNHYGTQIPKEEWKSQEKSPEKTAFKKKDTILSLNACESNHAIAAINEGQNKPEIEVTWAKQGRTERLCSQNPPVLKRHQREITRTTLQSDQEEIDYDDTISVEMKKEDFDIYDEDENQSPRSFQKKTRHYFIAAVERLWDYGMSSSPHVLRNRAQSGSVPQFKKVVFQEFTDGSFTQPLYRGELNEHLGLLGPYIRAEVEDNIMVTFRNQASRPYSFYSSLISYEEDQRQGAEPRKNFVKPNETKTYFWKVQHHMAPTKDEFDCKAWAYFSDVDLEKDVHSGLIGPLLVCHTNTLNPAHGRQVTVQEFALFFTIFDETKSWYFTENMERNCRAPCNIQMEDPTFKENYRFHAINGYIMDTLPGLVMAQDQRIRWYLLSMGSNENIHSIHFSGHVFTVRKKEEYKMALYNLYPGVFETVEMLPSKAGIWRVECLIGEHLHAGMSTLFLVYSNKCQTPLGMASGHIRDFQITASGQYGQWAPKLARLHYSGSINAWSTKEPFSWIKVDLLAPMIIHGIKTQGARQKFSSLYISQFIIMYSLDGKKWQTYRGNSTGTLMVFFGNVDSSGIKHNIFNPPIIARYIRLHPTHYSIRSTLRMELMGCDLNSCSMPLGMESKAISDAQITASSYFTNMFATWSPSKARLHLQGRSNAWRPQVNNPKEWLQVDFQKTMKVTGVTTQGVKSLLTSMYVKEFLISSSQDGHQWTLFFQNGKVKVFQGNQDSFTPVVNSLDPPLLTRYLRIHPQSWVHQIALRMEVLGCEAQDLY
UniProt P11021, residues 19-654: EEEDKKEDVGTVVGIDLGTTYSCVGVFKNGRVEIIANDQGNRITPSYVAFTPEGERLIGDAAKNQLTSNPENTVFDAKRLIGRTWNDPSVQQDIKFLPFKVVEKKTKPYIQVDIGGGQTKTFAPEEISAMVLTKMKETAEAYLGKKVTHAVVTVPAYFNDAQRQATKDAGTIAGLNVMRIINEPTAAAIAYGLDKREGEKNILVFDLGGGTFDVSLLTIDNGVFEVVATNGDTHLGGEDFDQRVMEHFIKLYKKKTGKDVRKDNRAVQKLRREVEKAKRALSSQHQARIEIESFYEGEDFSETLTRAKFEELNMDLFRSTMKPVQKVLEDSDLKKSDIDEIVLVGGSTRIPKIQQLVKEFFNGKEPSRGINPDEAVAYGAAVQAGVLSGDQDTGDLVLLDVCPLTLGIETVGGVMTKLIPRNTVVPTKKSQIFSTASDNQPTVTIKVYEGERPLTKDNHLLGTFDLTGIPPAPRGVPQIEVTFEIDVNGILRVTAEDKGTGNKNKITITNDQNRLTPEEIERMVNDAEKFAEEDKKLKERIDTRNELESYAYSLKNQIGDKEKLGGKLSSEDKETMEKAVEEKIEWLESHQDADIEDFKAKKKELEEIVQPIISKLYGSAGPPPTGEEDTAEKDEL

Key:
Assay in all cases: co-IP; lysates of transfected HEK293T cells (NP-40 lysis buffer: 50 mM Tris-Cl pH 7.5, 150 mM NaCl, 1% NP-40, 0.05% SDS); FVIII precipitated with agarose-bead-conjugated monoclonal anti-human FVIII, blots for BiP and CALR; cells untreated or treated with 2.5 µM SAHA or BIX (20 µM, 5 µM) for 24 h
[1] = molecular target: full-length factor VIII missense mutant p.N601D (human) (UniProt P00451)
[2] = molecular target: full-length factor VIII missense mutant p.R546W (human) (UniProt P00451)
[3] = molecular target: full-length factor VIII missense mutant p.I585T (human) (UniProt P00451)
[4] = molecular target: full-length factor VIII missense mutant p.R550H (human) (UniProt P00451)
[5] = molecular target: wild-type full-length coagulation factor VIII (human) (UniProt P00451)

binding [1] | binding [2] | binding [3] | binding [4] | binding [5] | Substance
binds | binds | binds | binds | binds | calreticulin (from UniProt P27797 18-417)
binds | binds | binds | binds | binds | immunoglobulin binding protein (BiP/GRP78) (from UniProt P11021 19-654)
